Laboratory results reported in article PMC2098691, “Regulation of the Xenopus Xsox17α1 promoter by co-operating VegT and Sox17 sites”.

Target: Xsox17 (Xenopus laevis)
Assay: co-IP; immunological co-precipitation, told only in the discussion with no data shown; no conditions given

binding: no binding
B1: VegT (protein, UniProt P87377 1-455)
chain: MRNCCRECGLSAGHLEPEASSNCASDVKSSPDMDSVSSQDSLYLPNTVGASLEDQDLWSQFHQEGTEMIITKSGRRMFPQCKIRLFGLHPYAKYMLLVDFVPLDNFRYKWNKNQWEAAGKAEPHPPCRTYVHPDSPAPGAHWMKDPICFQKLKLTNNTLDQQGHIILHSMHRYKPRFHVVQSDDMYNSPWGLVQVFSFPETEFTSVTAYQNEKITKLKINHNPFAKGFREQERSHKRDDVLKILQQSPSKRQKRKKWEDSPEADISDFPKAICVKEESIMDPAGVYQNWVSDHEANQGLTPHSPESEGANQEQQVPTSSSNFYNKSHYRRSSQHLSSPFELGEPSSRRLTPDIATVPDSDPDSLAVFHVIPTQNSAPERTCSMNFSMEAPMKQPLRGAMYSPYGADQWLVPAQGQYRPVGYTAYPTDLSTQGAVAHPHSAMSDWSQYSLFPYSCW

No constants are given. Whether binding was seen depends on the method and setting. In cells and extracts the contact can be indirect.
